Measurements as given in paper PMC7950264.
No constants are given. Whether binding was seen depends on the method and setting. In cells and extracts the contact can be indirect. Some results given as binding are weak or reduced against the parent protein; the word gives no strength.

Protein sequences, listed by entry. Tags and fused reporters are not part of them. Lines headed by an entry give the natural chain unless they say otherwise; changes in a name come on top. Chains listed by the source or under a name are the forms on record and can include a tag or linker.
pyruvate kinase M1 (P14618-2, form named): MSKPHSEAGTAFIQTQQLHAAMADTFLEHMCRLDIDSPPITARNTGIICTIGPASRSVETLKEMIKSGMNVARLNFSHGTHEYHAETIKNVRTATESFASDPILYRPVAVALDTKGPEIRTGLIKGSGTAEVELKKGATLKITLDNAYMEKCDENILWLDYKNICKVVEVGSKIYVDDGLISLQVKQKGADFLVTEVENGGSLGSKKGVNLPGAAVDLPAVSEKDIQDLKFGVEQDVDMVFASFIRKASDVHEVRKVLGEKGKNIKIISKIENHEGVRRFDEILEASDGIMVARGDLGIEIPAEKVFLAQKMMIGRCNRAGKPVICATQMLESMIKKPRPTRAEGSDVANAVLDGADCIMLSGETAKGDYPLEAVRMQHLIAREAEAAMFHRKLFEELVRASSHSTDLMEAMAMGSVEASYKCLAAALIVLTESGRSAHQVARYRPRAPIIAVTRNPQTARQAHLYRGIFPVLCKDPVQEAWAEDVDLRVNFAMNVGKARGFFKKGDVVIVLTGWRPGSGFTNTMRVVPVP

Target: T1, TRIM29 (human (endogenous in DLD-1 and SW480)) (UniProt Q14134)
T1 sequence: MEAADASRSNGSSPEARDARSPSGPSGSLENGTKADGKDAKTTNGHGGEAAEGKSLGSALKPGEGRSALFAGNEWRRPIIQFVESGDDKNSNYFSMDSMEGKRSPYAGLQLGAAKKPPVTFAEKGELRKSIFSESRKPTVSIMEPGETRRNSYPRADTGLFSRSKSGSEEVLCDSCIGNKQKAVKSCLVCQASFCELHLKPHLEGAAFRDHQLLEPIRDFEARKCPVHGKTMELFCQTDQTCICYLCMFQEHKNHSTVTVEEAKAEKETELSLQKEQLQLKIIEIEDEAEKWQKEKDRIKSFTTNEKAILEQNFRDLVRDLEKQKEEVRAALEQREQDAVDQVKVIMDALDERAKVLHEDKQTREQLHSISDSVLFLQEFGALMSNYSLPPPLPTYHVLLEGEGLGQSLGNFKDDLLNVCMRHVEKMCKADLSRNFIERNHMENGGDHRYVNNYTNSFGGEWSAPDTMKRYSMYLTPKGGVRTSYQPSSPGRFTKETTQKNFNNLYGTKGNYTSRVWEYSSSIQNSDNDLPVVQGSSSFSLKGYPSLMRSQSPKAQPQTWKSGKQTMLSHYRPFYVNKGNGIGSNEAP
Experiment: co-IP; reciprocal co-IP of endogenous proteins from SW480 and DLD-1 lysates; primary antibody and protein A/G beads at 4 C overnight, washed six times with 1% NP40, Western blot

- binding: binds
Substance: pyruvate kinase M1 (from UniProt P14618-2 1-531) (enzyme)
